According to PubChem BioAssay AID2551 (National Center for Advancing Translational Sciences (NCATS), 2010):
Screen size: about 310,000 compounds; about 17,000 (5.5%) were called active. The inconclusive results got no clear call from the source; some entries with a clear call stand among them for comparison. Calls follow the shape of the dose curve; as a rule, active = well fitted inhibition curve with a large enough effect; inconclusive = small, poorly fitted or top-dose-only effect, or effect the other way; inactive = no such curve, though single readings can be large or run the other way. Where the call is inconclusive, the potency comes from a doubtful curve fit.

By UniProt entry, the sequences of proteins in these tests, tags left out. Where a name states a change or a piece, a line headed by the entry shows the natural chain unless it says otherwise.
UniProt P51450: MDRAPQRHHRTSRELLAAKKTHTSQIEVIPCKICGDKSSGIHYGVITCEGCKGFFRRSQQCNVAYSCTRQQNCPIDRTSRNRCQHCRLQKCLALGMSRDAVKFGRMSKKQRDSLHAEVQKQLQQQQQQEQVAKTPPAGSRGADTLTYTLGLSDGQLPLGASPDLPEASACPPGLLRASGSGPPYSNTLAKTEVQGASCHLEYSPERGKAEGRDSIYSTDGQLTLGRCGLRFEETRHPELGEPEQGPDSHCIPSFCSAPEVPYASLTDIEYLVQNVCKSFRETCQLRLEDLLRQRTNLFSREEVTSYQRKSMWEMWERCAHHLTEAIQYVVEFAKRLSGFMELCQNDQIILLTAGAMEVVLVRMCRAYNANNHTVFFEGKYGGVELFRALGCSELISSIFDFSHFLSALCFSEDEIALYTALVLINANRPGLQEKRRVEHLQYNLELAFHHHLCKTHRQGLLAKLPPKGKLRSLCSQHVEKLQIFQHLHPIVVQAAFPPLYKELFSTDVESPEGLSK

What follows are compounds tested against Nuclear receptor ROR-gamma (Mus musculus) (UniProt P51450) (assay: qHTS for inhibitors of ROR gamma transcriptional activity). Settings: Drosophila S2 Gal4-RORgamma UAS-luciferase reporter, 20 h; activity change, negative = inhibition: at 53.6 µM (top of the series).
In short: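 Read-out: Photinus luciferase luminescence; inhibitors lower reporter signal. Insect Schneider cells with Gal4-ROR gamma fusion under metallothionein promoter, UAS reporter; 700 uM final copper sulfate induction, 20 hr, ambient temperature.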
% is scaled to controls: 0 for no effect and ±100 for the full control effect; potency is read from the fitted curve at half-maximal effect.
Also: nearly all actives have a fitted effect of over 60% in size.

Activity change, negative = inhibition, inactive:
CC[C@@H]1OC(=O)[C@H](C)[C@H](O[C@@H]2C[C@](C)(OC)[C@H](O)[C@H](C)O2)[C@H](C)[C@H](O[C@@H]2O[C@@H](C)C[C@@H](N(C)C)[C@@H]2O)[C@](C)(O)C[C@H](C)[C@@H]2N[C@H](COCCOC)O[C@H]([C@@H]2C)[C@]1(C)O 21.6% [at 16.9 µM], CCCCS(=O)(=O)c1sc2nc(C)cc(C)c2c1N 8.2%, COc1ccc(-n2c(C)nc3cc(C(=O)NCCN4CCOCC4)ccc32)cc1 1.2%, Cn1c(Cc2ccccc2)nnc1SCC(=O)Nc1ccc(N2CCOCC2)cc1 3.35%, C/C(CC(=O)Nc1ccc(N(C)C)cc1)=N\NC(=O)C(=O)NCc1ccccc1 25.3%, O=C(CNC(=O)c1ccco1)N/N=C/c1ccc(C(=O)O)cc1 -43.2%, O=C(CSc1nnc(-c2ccccc2F)n1CCc1ccccc1)Nc1ccc2[nH]c(=O)[nH]c2c1 29.3%, Cc1ccc(N2CCC(N3CCN(C)C(CCO)C3)CC2)cc1 (stereo not given) -19.5%, Cc1sc2nc(SCC(=O)Nc3ccccc3F)[nH]c(=O)c2c1C -6.98%, NC(=O)c1oc2ccccc2c1NC(=O)C1COc2ccccc2O1 (stereo not given) -5.55%, O=c1[nH]c(Cc2ccccc2)nc2c1oc1ccccc12 0.495%, CC(C)N1CCC(=NNc2ccc(S(=O)(=O)N3CCOCC3)cc2[N+](=O)[O-])CC1 8.26%, NC(N)=NS(=O)(=O)c1ccc(NC(=S)NC(=O)/C=C/c2ccc(F)cc2)cc1 -23.8%, C=CCOn1c(=O)c(-c2cccs2)[n+]([O-])c2ccccc21 26.7%, CN(C)c1ccc(N=Nc2ccccc2C(=O)OCC(=O)N2CCCC2)cc1 -23%, CN1CCC(Oc2ccc(Sc3ccccc3)cc2)CC1 -0.747%, Cc1cccc(OCCCC(=O)NC(C)C)c1 -0.302%, O=C(CSc1nc2ccccc2s1)NCC1CCCO1 (stereo not given) -31.2%, Nc1ccc(N2CCOCC2)c(S(=O)(=O)Nc2cc(Cl)ccc2Cl)c1 22.2%, CCC(Cc1ccccc1)NC(=O)C1CCN(c2nn3c(=O)cc(C)nc3s2)CC1 (stereo not given) -8.95%, CCCc1nnc(NC(=O)CCC(=O)N2CCN(Cc3ccc(Cl)cc3)CC2)s1 -14.6%, CCN(CC)S(=O)(=O)c1ccc(NN=C2CCN(C)CC2)c([N+](=O)[O-])c1 -16.9%, CCN(CC)c1ccc(NC(=O)CCNS(=O)(=O)c2ccc3c(c2)CCC(=O)N3)c(C)c1 -22.6%, CN(C)Cc1c(O)c(Cl)cc2c3c(c(=O)oc12)CCCC3 -22.1%, CCCOc1ccc(N2C(=O)CC(N3CCOCC3)C2=O)cc1 (stereo not given) 31.1%, CSc1ncccc1C(=O)NC1CC(C)(C)Cc2c1cnn2-c1ccccc1C (stereo not given) -7.74%

Potency, active:
Cc1oc(-c2cccc3ccccc23)nc1CN1CCC[C@H]1CO 7.08 µM, C/C(=N\Nc1ccccn1)c1ccc(C(C)C)cc1 3.98 µM, Cc1cc2c(cc1C)N(C(=O)CSC1=NCCS1)C(C)(C)c1ssc(=S)c1-2 3.98 µM, Cc1ccc(S(=O)(=O)Nc2ccc(NS(=O)(=O)c3ccc(C)cc3)c3ncccc23)cc1 5.01 µM, CCCCn1nnc(NC(=S)NC(=O)c2ccc(-c3cccc(Cl)c3Cl)o2)n1 1.26 µM, CSCc1cc(N(C)c2ccccc2)nc(-c2ccccn2)n1 0.562 µM, O=C(Nc1nnc(-c2ccco2)o1)c1ccc2ccccc2c1 1.41 µM, CCN(CC)C(=O)CSc1nc(C)cc(-c2cccs2)c1C#N 10 µM, Fc1ccc(/C=C\c2nccc3c2[nH]c2ccccc23)cc1 1.78 µM, S=C(NCc1ccccc1Cl)Nc1ccccc1Cl 0.562 µM, N/C(=N\c1nc2ccccc2o1)NC(=O)c1ccccc1Br 0.891 µM, C=CCn1c(-c2csc3c2CCC(C)C3)n[nH]c1=S (stereo not given) 1.41 µM, Cc1cc(C)nc(-n2nc(C)cc2NC(=O)CN2CCCC2)n1 11.2 µM, CSc1cnn(Cc2ccccc2)c(=O)c1SCc1ccccc1 0.562 µM, COc1ccc(/C=N/n2c(-c3ccc(C)cc3)n[nH]c2=S)cc1OC 3.16 µM

Potency, inconclusive:
O=c1[nH]c(C2CCN(S(=O)(=O)c3ccc(C(F)(F)F)cc3)CC2)nc2c1nnn2Cc1ccccc1 15.8 µM [activator, single point], CC1Cc2nc(SCC(=O)Nc3ccc4c(c3)OCO4)n(CCc3ccccc3)c(=O)c2S1 (stereo not given) 4.47 µM [activator, partial curve], Cc1cc2c(cc1S(=O)(=O)Nc1cccc(C)c1C)n(C)c(=O)c(=O)n2C 15.8 µM [activator, partial curve], CCCn1nc(C(=O)Nc2ccc3nc(C)sc3c2)c2ccccc2c1=O 10 µM [activator, partial curve], N#C/C(=C(/O)c1ccco1)c1nc2ccccc2s1 35.5 µM [inhibitor, single point], Cc1ccc(C)c(OCC(=O)Nc2cc(NC(=O)COc3cc(C)ccc3C)cc(C(=O)O)c2)c1 7.94 µM [activator, single point], CC(C)c1ccc(N2C(=O)CC(Sc3ncn[nH]3)C2=O)cc1 (stereo not given) 11.2 µM [inhibitor, partial curve, poor fit], O=C1ON=C(c2ccccc2)/C1=C/c1ccc(O)cc1 35.5 µM [inhibitor, single point], O=C(Nc1cccnc1)c1ccc(S(=O)(=O)c2ccccc2)cc1 12.6 µM [activator, single point], CC(C)OCCCNC(=S)N1CCC(C(=O)c2ccc(Cl)cc2)CC1 35.5 µM [activator, single point], CC1=CC(C)(C)NC(=S)N1c1cccc2ccccc12 2.51 µM [inhibitor, full curve, poor fit], COc1ccc(C(=O)N2CC3(C)CC2CC(C)(C)C3)cc1OC (stereo not given) 6.31 µM [activator, single point], COC(=O)C1=C(C)Nc2ncnn2C1c1ccccn1 (stereo not given) 2.51 µM [inhibitor, full curve, poor fit], O=C(NC1CCCCC1)C(=S)NC1CCCCC1 35.5 µM [activator, single point], CCN1CCN(C(=O)c2cn(CC)c3ccc(S(=O)(=O)N(C)C)cc3c2=O)CC1 22.4 µM [activator, single point], Cc1ccccc1NC(=O)CSc1[nH]c(=O)cc(C)c1C#N 22.4 µM [activator, single point], Cc1ccc(N2C(=O)CC(Sc3nc4ccccc4o3)C2=O)cc1Cl (stereo not given) 28.2 µM [inhibitor, single point], Cc1ccccc1-c1nc2sc3c(c2c(=O)o1)CCC3 0.447 µM [activator, single point], O=C(Cc1ncc(C(F)(F)F)cc1Cl)N1CCN(c2cccc(Cl)c2)CC1 35.5 µM [activator, single point], Cc1cc(C)n(-c2nnc(C)n2NC(=O)c2cccc(Cl)c2)n1 11.2 µM [inhibitor, single point], Cn1cccc1Cc1nnc(SCC(=O)Nc2nc3ccccc3s2)n1CCc1ccccc1 35.5 µM [inhibitor, single point], C=CCSc1nnc(-c2c[nH]c3ccccc23)n1CC 15.8 µM [activator, single point], CCOC(=O)c1c(C)c(C(=O)Nc2ccc3c(c2)OCO3)c(C)n1C 15.8 µM [activator, partial curve], O=C(COc1ncnc2cc(Cl)ccc12)c1ccc2c(c1)OCCO2 0.708 µM [activator, full curve], O=C(CSc1nnc(-c2ccccc2)n1-c1ccccc1)c1cccs1 10 µM [activator, partial curve], O=C1C(c2cc(=O)c3ccccc3[nH]2)=C(O)c2ccccc21 35.5 µM [inhibitor, single point], CC(=O)c1sc(-c2ccccc2)cc1NS(=O)(=O)c1ccc(C)cc1 11.2 µM [inhibitor, partial curve, poor fit], COc1ccc(CCNC(=S)NC2CCN(Cc3ccccc3)CC2)cc1 28.2 µM [inhibitor, single point], O=C(Nc1ccc2c(c1)oc1ccccc12)N1CCOCC1 0.708 µM [activator, full curve, poor fit], CCC1=C(OC(=O)N(CC)CC)N2C(=O)OC(=NCCc3c[nH]c4ccccc34)[C@]2(C)[C@H]2C1=CC[C@H]1C(=O)N(C)C(=O)[C@H]12 35.5 µM [activator, single point], COc1cc2[nH]c(=S)n(CCN3CCOCC3)c(=O)c2cc1OC 35.5 µM [inhibitor, single point], CNC(=S)NNC(=O)c1sccc1OCc1ccc(Cl)cc1Cl 22.4 µM [inhibitor, single point], O=S(=O)(c1ccc(N2CCN(S(=O)(=O)c3ccc4c(c3)OCCO4)CC2)nc1)N1CCCC1 4.47 µM [inhibitor, single point], O=C(COc1cccc(NC(=O)c2cccc([N+](=O)[O-])c2)c1)c1ccc(F)cc1 12.6 µM [activator, partial curve]
